Reference: patent publication US6783947B1, “Protecting groups for biological labeling” (Dade Behring Marburg GmbH, priority 1999, dated 2004)
At least one compound was matched to its structure with a doubt left.

Tests used:
[1] = Stability of alkylating reagent in the presence of reducing agent TCEP (TLC); assay type: physicochemical; conditions: 5 mM each in phosphate buffer pH 7, 30 minutes, room temperature
[2] = Storage stability of derivatizing agent, monitored by total LOCI assay signal modulation (three-reagent protocol); assay type: physicochemical; conditions: 5 mM, serum @ 2%; for % Signal Modulation: 37° C.
Experimental: A 50 μL mixture of hcy-ABA-sensitizer beads (0.1 mg/ml) and 2 mM TCEP is added to 5 μL hcy serum calibrator in a reaction cuvette, followed by the addition of 50 μL assay buffer. The mixture is incubated for 417 sec. Then, 50 μL of 5 mM BABA is added and followed by 45 μL assay buffer. Following incubation for 157 sec., 50 μL of Ab-coated acceptor beads (at 0.25-0.5 mg/ml) is added. After incubation for 154 sec., the sample is read.
In Table 2, the three-reagent protocol is used as described previously, with 5 mM BABA stored in a different pH buffer as R-2 (reagent 2).
The activity of BABA is monitored by the amount of total assay signal modulation obtained by LOCI using the three-reagent protocol.
The three-reagent assay protocol using CABA-phosphate as derivatizing agent is also assessed. Similar results are obtained with hcy serum calibrators as in the three-reagent protocol using BABA (not shown). The stability of CABA is also studied. The activity of CABA-phosphate as derivatizing agent is monitored by the amount of total assay signal modulation obtained by LOCI using the three-reagent protocol. In Table 3, the three-reagent assay protocol is used with CABA-phosphate stored at two temperatures in pH 9.0 as R-2; mixed hcy-sensitizer beads and TCEP as R-1; mixed Ab-acceptor beads and alkaline phosphatase as R-3.

SMILES: O=C(O)c1ccc(C(=O)CBr)cc1 [BABA, bromoacetylbenzoic acid]
- reaction of the alkylating agent with the reducing agent TCEP (TLC) [1]: nearly complete
- % Signal Mod. ([2]; 4° C., pH 5, 3 wk soln.): 58%
- % Signal Mod. ([2]; 4° C., pH 5, 4 wk soln.): 53%
- % Signal Mod. ([2]; 4° C., pH 5, 7 wk soln.): 41%
- % Signal Mod. ([2]; 4° C., pH 5, fresh soln.): 59%
- % Signal Mod. ([2]; 4° C., pH 6, 3 wk soln.): 58%
- % Signal Mod. ([2]; 4° C., pH 6, 4 wk soln.): 55%
- % Signal Mod. ([2]; 4° C., pH 6, 7 wk soln.): 50%
- % Signal Mod. ([2]; 4° C., pH 6, fresh soln.): 60%
- % Signal Mod. ([2]; 4° C., pH 7, 3 wk soln.): 59%
- % Signal Mod. ([2]; 4° C., pH 7, 4 wk soln.): 55%
- % Signal Mod. ([2]; 4° C., pH 7, 7 wk soln.): 47%
- % Signal Mod. ([2]; 4° C., pH 7, fresh soln.): 60%
- % Signal Modulation ([2]; pH 5, 3 wk soln.): 7%
- % Signal Modulation ([2]; pH 6, 3 wk soln.): 41%
- % Signal Modulation ([2]; pH 7, 3 wk soln.): 38%
- % Signal Mod. ([2]; R.T., pH 5, 3 wk soln.): 14%
- % Signal Mod. ([2]; R.T., pH 5, 4 wk soln.): 31%
- % Signal Mod. ([2]; R.T., pH 5, 7 wk soln.): 11%
- % Signal Mod. ([2]; R.T., pH 6, 3 wk soln.): 58%
- % Signal Mod. ([2]; R.T., pH 6, 4 wk soln.): 50%
- % Signal Mod. ([2]; R.T., pH 6, 7 wk soln.): 40%
- % Signal Mod. ([2]; R.T., pH 7, 3 wk soln.): 57%
- % Signal Mod. ([2]; R.T., pH 7, 4 wk soln.): 49%
- % Signal Mod. ([2]; R.T., pH 7, 7 wk soln.): 37%
